The supplement of paper PMC6411743
± gives the standard deviation of the averaged measurements. The entries are a selection whose mix differs from that of the whole data set.

Key:
Assay in all cases: NP40-soluble protein abundance relative to vehicle (solubility fold change) (ratio); higher = more soluble protein in presence of AMP-PNP
[1] = target: T1, PINX1 (UniProt Q96BK5)
T1 sequence (whole entry): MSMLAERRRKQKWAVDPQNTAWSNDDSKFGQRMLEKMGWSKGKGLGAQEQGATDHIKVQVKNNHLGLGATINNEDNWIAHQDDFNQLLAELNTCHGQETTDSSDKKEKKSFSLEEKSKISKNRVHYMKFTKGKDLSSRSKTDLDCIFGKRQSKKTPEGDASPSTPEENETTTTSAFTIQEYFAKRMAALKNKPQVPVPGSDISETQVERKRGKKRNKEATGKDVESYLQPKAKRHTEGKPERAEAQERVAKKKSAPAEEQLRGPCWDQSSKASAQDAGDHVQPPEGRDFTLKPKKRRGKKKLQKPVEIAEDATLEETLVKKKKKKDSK
Method in brief: (§1)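 Eight concentrations, 0.1 to 10 mM, were tested on Jurkat crude lysate for 10 min at room temperature and then 3 min at 37 °C, in three independent experiments. The lysate was solubilised with 0.8% NP40 and benzonase, ultracentrifuged, and the supernatant TMT-labelled for LC-MS/MS. Each value is the fold change against the detergent-processed vehicle in its own replicate, from vsn-normalised intensities.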

[2] = target: T2, RBM17 (UniProt Q96I25)
T2 sequence (whole entry): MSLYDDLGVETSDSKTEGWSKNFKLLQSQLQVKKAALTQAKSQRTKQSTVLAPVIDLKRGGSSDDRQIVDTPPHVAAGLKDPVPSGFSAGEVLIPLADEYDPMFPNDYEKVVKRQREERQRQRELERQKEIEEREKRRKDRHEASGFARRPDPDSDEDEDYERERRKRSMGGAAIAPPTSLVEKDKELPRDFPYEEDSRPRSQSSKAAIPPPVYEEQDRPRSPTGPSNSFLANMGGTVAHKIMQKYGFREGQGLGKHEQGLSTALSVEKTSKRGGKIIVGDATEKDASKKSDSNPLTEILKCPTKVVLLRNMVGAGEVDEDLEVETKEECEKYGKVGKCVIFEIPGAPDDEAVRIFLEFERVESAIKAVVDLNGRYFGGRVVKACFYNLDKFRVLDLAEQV
Method in brief: as §1

[3] = target: T3, RNF25 (UniProt Q96BH1)
T3 sequence (whole entry): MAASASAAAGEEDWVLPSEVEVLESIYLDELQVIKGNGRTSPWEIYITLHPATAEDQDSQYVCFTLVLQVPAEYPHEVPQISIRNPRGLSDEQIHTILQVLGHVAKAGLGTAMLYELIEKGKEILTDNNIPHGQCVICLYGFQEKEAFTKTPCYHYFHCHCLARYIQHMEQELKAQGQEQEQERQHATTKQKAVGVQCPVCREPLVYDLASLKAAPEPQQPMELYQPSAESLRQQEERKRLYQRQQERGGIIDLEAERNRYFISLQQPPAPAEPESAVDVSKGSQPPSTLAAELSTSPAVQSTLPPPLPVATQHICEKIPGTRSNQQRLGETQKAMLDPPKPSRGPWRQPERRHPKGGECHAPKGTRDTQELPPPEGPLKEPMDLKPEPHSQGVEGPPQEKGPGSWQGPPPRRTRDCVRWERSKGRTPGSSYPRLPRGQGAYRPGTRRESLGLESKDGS
Method in brief: as §1

[4] = target: T4, UniProt Q969R2 and related entries
T4 sequence (whole entry): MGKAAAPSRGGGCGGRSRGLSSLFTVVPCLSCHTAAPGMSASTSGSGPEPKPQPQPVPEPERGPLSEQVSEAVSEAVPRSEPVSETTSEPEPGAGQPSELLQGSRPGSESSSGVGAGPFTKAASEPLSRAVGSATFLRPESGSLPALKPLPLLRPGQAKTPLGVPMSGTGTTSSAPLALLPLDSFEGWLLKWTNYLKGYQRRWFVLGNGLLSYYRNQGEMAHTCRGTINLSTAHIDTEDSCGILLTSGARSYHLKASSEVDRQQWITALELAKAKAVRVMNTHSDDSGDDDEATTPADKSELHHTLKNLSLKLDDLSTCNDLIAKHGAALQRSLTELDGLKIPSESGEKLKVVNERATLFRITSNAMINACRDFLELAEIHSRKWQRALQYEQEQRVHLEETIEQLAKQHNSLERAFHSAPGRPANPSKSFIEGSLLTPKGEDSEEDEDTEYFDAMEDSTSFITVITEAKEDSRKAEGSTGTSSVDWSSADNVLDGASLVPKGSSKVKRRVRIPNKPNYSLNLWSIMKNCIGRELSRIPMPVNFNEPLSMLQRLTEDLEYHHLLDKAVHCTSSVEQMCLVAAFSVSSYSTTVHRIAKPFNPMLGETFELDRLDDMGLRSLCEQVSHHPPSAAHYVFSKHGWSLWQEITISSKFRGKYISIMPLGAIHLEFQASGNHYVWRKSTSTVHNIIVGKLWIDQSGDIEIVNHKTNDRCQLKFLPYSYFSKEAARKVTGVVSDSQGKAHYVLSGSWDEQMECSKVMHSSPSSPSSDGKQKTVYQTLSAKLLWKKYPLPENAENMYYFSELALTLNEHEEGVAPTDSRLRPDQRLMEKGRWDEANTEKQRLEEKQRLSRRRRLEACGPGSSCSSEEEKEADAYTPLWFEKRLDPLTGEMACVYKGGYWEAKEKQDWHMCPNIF
Method in brief: as §1

[5] = target: T5, UniProt Q969V3 and related entries
T5 sequence (whole entry): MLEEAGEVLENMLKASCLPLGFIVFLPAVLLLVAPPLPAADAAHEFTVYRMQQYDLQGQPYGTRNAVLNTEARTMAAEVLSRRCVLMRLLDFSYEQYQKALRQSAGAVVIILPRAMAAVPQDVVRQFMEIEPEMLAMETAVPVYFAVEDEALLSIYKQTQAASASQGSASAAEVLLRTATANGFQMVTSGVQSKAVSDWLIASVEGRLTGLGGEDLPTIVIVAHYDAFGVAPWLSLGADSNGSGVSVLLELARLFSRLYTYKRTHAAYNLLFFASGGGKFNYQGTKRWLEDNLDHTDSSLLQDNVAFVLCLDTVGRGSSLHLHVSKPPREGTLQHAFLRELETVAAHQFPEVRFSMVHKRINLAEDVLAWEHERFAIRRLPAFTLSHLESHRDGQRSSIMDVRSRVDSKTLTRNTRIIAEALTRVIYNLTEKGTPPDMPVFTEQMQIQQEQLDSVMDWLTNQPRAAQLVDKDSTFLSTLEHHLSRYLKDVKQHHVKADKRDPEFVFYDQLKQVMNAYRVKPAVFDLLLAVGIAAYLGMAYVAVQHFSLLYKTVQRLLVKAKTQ
Method in brief: as §1

Nc1ncnc2c1ncn2[C@@H]1O[C@H](COP(=O)(O)OP(=O)(O)NP(=O)(O)O)[C@@H](O)[C@H]1O [adenylyl imidodiphosphate]
NP40-soluble protein abundance ([1]; concentration: 1mM): 1.15 ± 0.053
NP40-soluble protein abundance ([1]; concentration: 2mM): 1.27 ± 0.034
NP40-soluble protein abundance ([1]; concentration: 4mM): 1.36 ± 0.09
NP40-soluble protein abundance ([1]; concentration: 6mM): 1.51 ± 0.057
NP40-soluble protein abundance ([1]; concentration: 8mM): 1.59 ± 0.083
NP40-soluble protein abundance ([1]; concentration: 10mM): 1.8 ± 0.079
NP40-soluble protein abundance ([2]; concentration: 1mM): 1.06 ± 0.048
NP40-soluble protein abundance ([2]; concentration: 2mM): 1.1 ± 0.046
NP40-soluble protein abundance ([2]; concentration: 4mM): 1.09 ± 0.071
NP40-soluble protein abundance ([2]; concentration: 6mM): 1.2 ± 0.055
NP40-soluble protein abundance ([2]; concentration: 8mM): 1.18 ± 0.085
NP40-soluble protein abundance ([2]; concentration: 10mM): 1.24 ± 0.11
NP40-soluble protein abundance ([3]; concentration: 1mM): 0.984 ± 0.028
NP40-soluble protein abundance ([3]; concentration: 2mM): 0.969 ± 0.033
NP40-soluble protein abundance ([3]; concentration: 4mM): 0.9668 ± 0.0029
NP40-soluble protein abundance ([3]; concentration: 6mM): 0.988 ± 0.034
NP40-soluble protein abundance ([3]; concentration: 8mM): 0.987 ± 0.037
NP40-soluble protein abundance ([3]; concentration: 10mM): 0.988 ± 0.022
NP40-soluble protein abundance ([4]; concentration: 1mM): 1.03 ± 0.035
NP40-soluble protein abundance ([4]; concentration: 2mM): 0.988 ± 0.055
NP40-soluble protein abundance ([4]; concentration: 4mM): 0.985 ± 0.038
NP40-soluble protein abundance ([4]; concentration: 6mM): 0.961 ± 0.032
NP40-soluble protein abundance ([4]; concentration: 8mM): 0.975 ± 0.021
NP40-soluble protein abundance ([4]; concentration: 10mM): 0.914 ± 0.069
NP40-soluble protein abundance ([5]; concentration: 1mM): 0.972 ± 0.026
NP40-soluble protein abundance ([5]; concentration: 2mM): 0.929 ± 0.079
NP40-soluble protein abundance ([5]; concentration: 4mM): 0.976 ± 0.018
NP40-soluble protein abundance ([5]; concentration: 6mM): 0.959 ± 0.029
NP40-soluble protein abundance ([5]; concentration: 8mM): 0.998 ± 0.016
NP40-soluble protein abundance ([5]; concentration: 10mM): 0.972 ± 0.037
